Assay results reported in PubChem BioAssay AID651640 (Broad Institute, 2012).
In all, about 350,000 compounds went through this assay and about 6,000 (1.7%) were called active. This list was built around the results that the source calls inconclusive (neither active nor inactive); the mix of calls is not that of the screen. Rule as the data show it: active = CPE inhibition above about 20% (passing the limit was not always enough); inconclusive = no clear call, values can overlap the other calls; tested in BHK-21 cells. The source holds several records for some structures; these can differ, active in one and inactive in another.

Assay: protection of cells from dengue 2 killing – plate reader, single concentration, primary screen (AID 651640);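 also: 0% = median of neutral control wells and 100% = median of positive control wells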
Settings: DENV2-infected cells, cytopathic effect rescue, at 9.99 µM, stronger effect = higher value

| Structure (SMILES) | CPE inhibition |
| --- | --- |
| Cc1cc(C)c(CN2CCCC(CNC(=O)c3ccc(F)cc3)C2)c(-n2cccn2)c1 (stereo not drawn) | inconclusive: 46.6% |
| CC(C)(C)NC[C@@H](O)COc1cccc2c1CCCC2=O | active: 30.9% |
| CO[C@@H]1CN(C)C(=O)c2ccc(NS(C)(=O)=O)cc2OC[C@@H](C)N(CC2CCCCC2)C[C@@H]1C | inactive: 1.33% |
| COCCN1CCN(C(=O)C2CCC(=O)N(Cc3ccccc3F)C2)CC1 (stereo not drawn) | inconclusive: 34.5% |
| Cc1ccc2c(c1)N(CC(=O)Nc1nccs1)C(=O)CO2 | inactive: -2.45% |
| CC(=O)N/C(=C\c1ccccc1)C(=O)OCC(=O)N(C)C1CCS(=O)(=O)C1 (stereo not drawn) | inconclusive: 48.8% |
| CCOc1ccc(NC(=O)COC(=O)Cn2nc(C)c([N+](=O)[O-])c2C)cc1OCC | inconclusive: 28.1% |
| CCC(=O)N1CC[C@@H]2[C@H]1c1cc(-c3ccc(C(=O)N(C)C)cc3)ccc1N[C@@H]2CO | inconclusive: 40.2% |
| O[C@@H]1CN(Cc2cccs2)[C@@H](c2ccccc2)C[C@H]1n1cc(-c2ccc(F)cc2)nn1 | active: 50.7% |
| C[C@@H]1CN([C@@H](C)CO)C(=O)c2cc(NC(=O)Cn3cnnn3)ccc2O[C@H]1CN(C)C(=O)Nc1ccc(C(F)(F)F)cc1 | inconclusive: 31.5% |
| O=C(Nc1ccccc1)C1=C[C@H](c2csc3ccccc23)C[C@H](OCCCCO)O1 | active: 20.2% |
| Nn1c(SCc2cccc(Oc3ccccc3)c2)nnc1C(F)(F)F | inactive: 9.86% |
| CN1C(=O)c2cc(NC(=O)c3cccs3)ccc2OC[C@H]2O[C@@H](CC(=O)N3CCOCC3)CC[C@H]21 | inactive: -3.31% |
| COCCOC(=O)C1=C(C)NC(SCC(=O)NC(C)(C)C)=C(C#N)C1c1ccco1 (stereo not drawn) | inactive: -8.48% |
| C=CCN1C(=O)/C(=C\C(C)=C\c2ccccc2)SC1=S | inconclusive: 27.4% |
| C[C@@H]1CN([C@H](C)CO)C(=O)c2cccc(NC(=O)C3CCCCC3)c2O[C@H]1CN(C)C(=O)Nc1ccccc1 | inactive: 10.7% |
| COc1ccccc1-c1cc(NC=O)c2ncc(-c3cccc(C(=O)N(C)C)c3)n2c1 | inactive: -5.72% |
| Cc1ccc(-n2c(SCC(N)=O)nnc2-c2cnccn2)cc1 | inactive: 3.85% |
| COc1cccc(C#Cc2ccc3c(c2)[C@@H]2[C@@H](CCN2S(=O)(=O)c2ccccc2)[C@@H](CO)N3)c1 | active: 44.9% |
| CN1CCN(C(=O)c2cc3c(c(-c4cccc(Br)c4)n2)[C@@H](CCO)N(S(=O)C(C)(C)C)C3)CC1 (stereo partly drawn) | inactive: 7.55% |
| C[C@@H]1CN([C@H](C)CO)S(=O)(=O)c2ccc(C#CCN(C)C)cc2O[C@@H]1CN(C)Cc1ccc(F)cc1 | inactive: -3.01% |
| CCC(=O)N1c2ccccc2NC2=C(C(=O)CC(C)(C)C2)C1c1cccnc1 (stereo not drawn) | inconclusive: 21.2% |
| Cc1noc(C)c1S(=O)(=O)Nc1ccc2c(c1)CC(=O)N([C@@H](C)CO)C[C@@H](C)[C@@H](CN(C)C(=O)Nc1ccc(F)cc1)O2 | inactive: -12.7% |
| CCC(C)OC(=O)C[N+](C)(C)CCOC1CC2CCC1(C)C2(C)C (stereo not drawn) | inactive: -1.95% |
| CN1CCC(=C2c3ccccc3C=Cc3ccccc32)CC1 | inactive: 0.524% |

Quoted at random: 2 entries already listed.

| Structure (SMILES) | CPE inhibition |
| --- | --- |
| Cc1ccc(-n2c(SCC(N)=O)nnc2-c2cnccn2)cc1 | inactive: 3.85% |
| Cc1ccc2c(c1)N(CC(=O)Nc1nccs1)C(=O)CO2 | inactive: -2.45% |

A few values from the entries so far:
Entry of C=CCN1C(=O)/C(=C\C(C)=C\c2ccccc2)SC1=S under CPE inhibition: inconclusive: 27.4%
Entry of Cc1ccc2c(c1)N(CC(=O)Nc1nccs1)C(=O)CO2 under CPE inhibition: inactive: -2.45%
Entry of COc1ccccc1-c1cc(NC=O)c2ncc(-c3cccc(C(=O)N(C)C)c3)n2c1 under CPE inhibition: inactive: -5.72%

Next part.

| Structure (SMILES) | CPE inhibition |
| --- | --- |
| O=C(c1cccc(NS(=O)(=O)c2cccc(F)c2)c1)N1CCN(c2ccccc2)CC1 | inconclusive: 35.3% |
| COc1ccccc1S(=O)(=O)N[C@@H]1CC[C@H](CCNC(=O)C2CCOCC2)O[C@H]1CO | inconclusive: 34.3% |
| CCCNC(=O)[C@H]1[C@H](CO)[C@H]2Cn3c(cccc3=O)[C@H]2N1Cc1ccccn1 | inactive: 0.485% |
| CCOC(CCn1c(SCC(=O)NC2CCCC2)nc2ccccc2c1=O)OCC | inconclusive: 39.4% |
| O=C(CCCCn1cnc2c(=S)nc[nH]c21)Nc1ccc(C(=O)O)c(O)c1 | inconclusive: 40.8% |
| CCn1c(SCc2ccccc2Cl)nc2nc3c(cc2c1=O)CCCC3 | inconclusive: 66.9% |
| O=C(CCCC(=O)OCC(=O)c1ccc(Cl)cc1)NC1CCCCC1 | inconclusive: 27.1% |
| CCN(Cc1cc(=O)[nH]c2ccccc12)C(=O)c1ccc(C)cc1 | inconclusive: 38.1% |
| C[C@H]1CN([C@@H](C)CO)S(=O)(=O)c2ccc(C#Cc3ccccc3)cc2O[C@@H]1CN(C)S(=O)(=O)c1cn(C)cn1 | active: 34.1% |
| Cc1ccnc(NS(=O)(=O)c2ccc(NC(=O)c3oc4ccccc4c3C)cc2)n1 | inconclusive: 42% |
| O=C(C[C@H]1CC[C@@H]2[C@H](COC[C@@H](O)CN2C(=O)c2cccnc2)O1)NCc1ccc(-c2ccccc2)cc1 | active: 23.4% |
| COc1ccccc1CN1[C@@H]2CNC[C@H]1C2c1ccc(-c2cccc(C#N)c2)cc1 (stereo partly drawn) | active: 53.2% |
| COC(=O)C1(Cc2cc(-c3ccc(Cl)cc3)no2)CCN(C(=O)OC(C)(C)C)CC1 | inconclusive: 48.1% |
| O=C(Cc1ccccc1C(=O)O)Nc1cccc2ccccc12 | inconclusive: 29.5% |
| CC1Oc2ccccc2N(CC(=O)N2CCCc3ccccc32)C1=O (stereo not drawn) | inactive: -1.14% |
| O=[N+]([O-])c1ccc(S(=O)(=O)NCCCc2ccccc2)cc1 | inconclusive: 20.2% |
| COc1cccc(NC(=O)N2C[C@@H](O)COC[C@@H]3O[C@@H](CC(=O)NC4CCC4)CC[C@H]32)c1 | inconclusive: 63.6% |
| Cc1cc(C)cc(NC(=O)[C@H](Cc2c[nH]c3ccccc23)NC(=O)[C@@H]2Cc3ccccc3CN2)c1 | inconclusive: 54.1% |
| Cc1ccc(C(=O)Nc2cccc(C(=O)NCc3ccccc3)c2)cc1 | inconclusive: 21.7% |
| O=C(C[C@H]1C[C@H]2c3cc(NC(=O)NC4CCCCC4)ccc3O[C@H]2[C@H](CO)O1)NCC(F)(F)F | active: 48.7% |
| Cc1ccc(S(=O)(=O)N2C[C@H]3[C@H]4C(=O)N(c5ccccc5)C(=O)[C@H]4C[C@H](OC(=O)Nc4cccs4)[C@@]3(O)C2)cc1 | inconclusive: 28.8% |
| COc1cc([N+](=O)[O-])ccc1N1C(=O)CC(Sc2nccc(C)n2)C1=O (stereo not drawn) | inconclusive: 78.5% |
| Cc1cc(N2CCOCC2)nc2ccc(NC(=S)NCc3ccc4c(c3)OCO4)cc12 | inconclusive: 39.7% |
| CCCC#Cc1ccc([C@H]2[C@@H](CO)N(C(=O)NC(C)C)[C@@H]2CNC(C)=O)cc1 | inactive: 0.766% |
| Cc1ccc(S(=O)(=O)NNC(=O)Nc2ccccc2F)c(C)c1 | inconclusive: 23.6% |

| Structure (SMILES) | CPE inhibition |
| --- | --- |
| CCCNC(=O)c1cc(C2CCCN(C(=O)c3cc(C(C)(C)C)nn3C)C2)on1 (stereo not drawn) | inconclusive: 28.6% |
| CCN(Cc1ccc(O)cc1)CC1CCCN(CCc2cccc(F)c2)C1 (stereo not drawn) | inconclusive: 24.9% |
| CC1(C)NC(=O)N(CC(O)COc2ccccc2[N+](=O)[O-])C1=O (stereo not drawn) | inconclusive: 31.4% |
| CN(C)C(=O)N1CCN(C(=O)[C@H]2O[C@@H](n3ccc(N)nc3=O)[C@H](O)[C@@H]2O)CC1 | active: 70.2% |
| CCN1CCN(c2nc(N)c([N+](=O)[O-])c(Nc3cccc(C)c3)n2)CC1 | inactive: 3.4% |
| COc1cc2ccccc2cc1C(=O)Nc1ccc2oc(=O)ccc2c1 | inactive: -2.86% |
| Cc1ccccc1CN(C)C(=O)COC(=O)CSc1ccc([N+](=O)[O-])cc1 | inactive: 0.783% |
| CCOC(=O)c1ccc(NC(=O)c2cc(F)c(F)cc2Cl)cc1 | inconclusive: 29% |
| COc1ccc(S(=O)(=O)N[C@H]2CC[C@H](CC(=O)NCCc3ccncc3)O[C@H]2CO)cc1 | active: 23.3% |
| C[C@@H]1CCCCO[C@@H](CN(C)C(=O)c2ccccc2)[C@@H](C)CN([C@H](C)CO)C(=O)c2cc(NC(=O)c3ccccc3)ccc2O1 | inactive: 3.56% |
| CCC(=O)n1nc(-c2cccnc2)nc1NCc1ccccc1 | inconclusive: 45.1% |
| CSc1cccc(CN2CCCC(C(=O)Nc3cccc(-n4cccn4)c3)C2)c1 (stereo not drawn) | inconclusive: 45.5% |
| C[C@@H]1CN([C@@H](C)CO)C(=O)c2cc(NC(=O)Nc3ccc(C(F)(F)F)cc3)ccc2O[C@@H]1CN(C)Cc1ccncc1 | active: 31.1% |
| C[C@H](CO)N1C[C@H](C)[C@@H](CN(C)C(=O)NC2CCCCC2)Oc2c(NC(=O)CCCCCC(=O)Nc3ccccc3N)cccc2C1=O | inconclusive: 21.7% |
| CCCc1cc(C(N)=S)ccn1 | inactive: -6.35% |
| CCOc1ccc2nc(NCCCNS(=O)(=O)c3ccc(C)cc3)c(C#N)cc2c1 | inconclusive: 38.2% |
| CCCN(C)C[C@H]1Oc2cc(C#CCOC)ccc2S(=O)(=O)N([C@H](C)CO)C[C@H]1C | inactive: 11.7% |
| C[C@H]1CN([C@@H](C)CO)C(=O)c2cc(-c3cccc(F)c3)cnc2O[C@@H]1CN(C)C(=O)C1CCC1 | inconclusive: 40.6% |
| COc1ccc(NC(=O)N(C)C[C@H]2Oc3c(NS(=O)(=O)c4ccc(F)cc4)cccc3C(=O)N([C@@H](C)CO)C[C@H]2C)cc1 | inconclusive: 73.4% |
| C[C@H](CO)N1C[C@H](C)[C@H](CN(C)C(=O)Nc2ccc(F)cc2)Oc2c(NC(=O)C3CC3)cccc2C1=O | active: 34.6% |
| CCOC(=O)[C@H]1[C@H]2COc3ccccc3[C@@H]2N2C(=O)c3ccccc3NC(=O)[C@@]12C | inconclusive: 54.8% |
| C[C@H]1CN([C@@H](C)CO)C(=O)c2cccc(NC(=O)c3cnccn3)c2O[C@@H]1CN(C)Cc1ccc2c(c1)OCO2 | active: 24.2% |
| COc1cccc(-c2cnc3c(c2)C(=O)N([C@H](C)CO)C[C@@H](C)[C@H](CN(C)Cc2ccccc2)O3)c1 | active: 26.8% |
